Measurements reported in the supplement of paper PMC8728848.
This is one part of the list.

Experiments:
Test in all cases: glycan array binding signal (z-score within array); higher = stronger binding
Settings in all cases: glycan notation: IUPAC condensed, linker removed
[1] = target: Gal(a1-3)Gal(b1-4)GlcNAc(b1-2)Man
In short: (§1)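 Glycan array data were curated from 3228 arrays in the Consortium for Functional Glycomics database and kept only where the protein sequence was available. Glycan names were converted to IUPAC-condensed notation, and columns mapping to the same glycan were averaged. The binding signal is a within-array Z-score, averaged across arrays of the same protein sequence at different concentrations or buffers and across linkers. Negative Z-scores can be read as non-binding.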

[2] = target: Gal(a1-3)Gal(b1-4)GlcNAc(b1-2)Man(a1-3)[Gal(a1-3)Gal(b1-4)GlcNAc(b1-2)Man(a1-6)]Man(b1-4)GlcNAc(b1-4)GlcNAc
In short: as §1

[3] = target: Gal(a1-3)Gal(b1-4)GlcNAc(b1-3)GalNAc
In short: as §1

[4] = target: Gal(a1-3)Gal(b1-4)GlcNAc(b1-6)GalNAc
In short: as §1

[5] = target: Gal(a1-3)Gal(b1-4)[Fuc(a1-3)]GlcNAc
In short: as §1

[6] = target: Gal(a1-3)Gal(b1-4)[Fuc(a1-3)]GlcNAc(b1-2)Man(a1-3)[Gal(a1-3)Gal(b1-4)[Fuc(a1-3)]GlcNAc(b1-2)Man(a1-6)]Man(b1-4)GlcNAc(b1-4)GlcNAc
In short: as §1

Gal(a1-3)GalNAc = target: Gal(a1-3)GalNAc
In short: as §1

[7] = target: Gal(a1-3)[Gal(a1-4)]Gal(b1-4)GlcNAc
In short: as §1

[8] = target: Gal(a1-4)Gal(b1-3)GlcNAc(b1-2)Man(a1-3)[Gal(a1-4)Gal(b1-3)GlcNAc(b1-2)Man(a1-6)]Man(b1-4)GlcNAc(b1-4)GlcNAc
In short: as §1

Gal(a1-4)Gal(b1-4)Glc = target: Gal(a1-4)Gal(b1-4)Glc
In short: as §1

Gal(a1-4)Gal(b1-4)GlcNAc = target: Gal(a1-4)Gal(b1-4)GlcNAc
In short: as §1

[9] = target: Gal(a1-4)Gal(b1-4)GlcNAc(b1-2)Man(a1-3)[Gal(a1-4)Gal(b1-4)GlcNAc(b1-2)Man(a1-6)]Man(b1-4)GlcNAc(b1-4)GlcNAc
In short: as §1

[10] = target: Gal(a1-4)Gal(b1-4)GlcNAc(b1-3)Gal(b1-4)Glc
In short: as §1

Gal(a1-4)GlcNAc = target: Gal(a1-4)GlcNAc
In short: as §1

Gal(a1-6)Glc = target: Gal(a1-6)Glc
In short: as §1

Gal(b1-2)Gal = target: Gal(b1-2)Gal
In short: as §1

Gal(b1-3)Gal = target: Gal(b1-3)Gal
In short: as §1

Gal(b1-3)Gal(b1-4)GlcNAc = target: Gal(b1-3)Gal(b1-4)GlcNAc
In short: as §1

Gal(b1-3)GalNAc = target: Gal(b1-3)GalNAc
In short: as §1

[11] = target: Gal(b1-3)GalNAc(a1-3)[Fuc(a1-2)]Gal(b1-4)Glc
In short: as §1

[12] = target: Gal(b1-3)GalNAc(a1-3)[Fuc(a1-2)]Gal(b1-4)GlcNAc
In short: as §1

Gal(b1-3)GalNAc(b1-3)Gal = target: Gal(b1-3)GalNAc(b1-3)Gal
In short: as §1

[13] = target: Gal(b1-3)GalNAc(b1-3)Gal(a1-4)Gal(b1-4)Glc
In short: as §1

[14] = target: Gal(b1-3)GalNAc(b1-4)Gal(b1-4)Glc
In short: as §1

[15] = target: Gal(b1-3)GalNAc(b1-4)[Neu5Ac(a2-3)]Gal(b1-4)Glc
In short: as §1

Gal(b1-3)GlcNAc = target: Gal(b1-3)GlcNAc
In short: as §1

[16] = target: Gal(b1-3)GlcNAc(a1-3)Gal(b1-4)GlcNAc
In short: as §1

[17] = target: Gal(b1-3)GlcNAc(a1-6)Gal(b1-4)GlcNAc
In short: as §1

Gal(b1-3)GlcNAc(b1-2)Man = target: Gal(b1-3)GlcNAc(b1-2)Man
In short: as §1

[18] = target: Gal(b1-3)GlcNAc(b1-2)Man(a1-3)[Gal(b1-3)GlcNAc(b1-2)Man(a1-6)]Man(b1-4)GlcNAc(b1-4)GlcNAc
In short: as §1

[19] = target: Gal(b1-3)GlcNAc(b1-2)Man(a1-3)[Gal(b1-3)GlcNAc(b1-2)Man(a1-6)]Man(b1-4)GlcNAc(b1-4)[Fuc(a1-6)]GlcNAc
In short: as §1

[20] = target: Gal(b1-3)GlcNAc(b1-2)Man(a1-3)[GlcNAc(b1-4)][Gal(b1-3)GlcNAc(b1-2)Man(a1-6)]Man(b1-4)GlcNAc(b1-4)GlcNAc
In short: as §1

[21] = target: Gal(b1-3)GlcNAc(b1-2)[Gal(b1-3)GlcNAc(b1-6)]Man(a1-6)[Gal(b1-3)GlcNAc(b1-2)Man(a1-3)]Man(b1-4)GlcNAc(b1-4)GlcNAc
In short: as §1

[22] = target: Gal(b1-3)GlcNAc(b1-3)Gal(b1-3)GlcNAc
In short: as §1

[23] = target: Gal(b1-3)GlcNAc(b1-3)Gal(b1-4)Glc
In short: as §1

[24] = target: Gal(b1-3)GlcNAc(b1-3)Gal(b1-4)GlcNAc
In short: as §1

[25] = target: Gal(b1-3)GlcNAc(b1-3)Gal(b1-4)GlcNAc(b1-2)Man(a1-3)[Gal(b1-3)GlcNAc(b1-3)Gal(b1-4)GlcNAc(b1-2)Man(a1-6)]Man(b1-4)GlcNAc(b1-4)GlcNAc
In short: as §1

B1: PX9961KLbvu-535-38-535 (Bacteroides vulgatus) (protein)
chain: DKAYTDAESYTKGLHKIYSVWALSGQDGSSSSDISGLDAGNTALLRCWWTLQEQPTDEMKNAWNDAWCTEVNYMTWTTNKVEPIEGVYQRCMYIVALVNEFLKNIPNAPESIDKESYIAQARFNRAFAYYVLMDMFALPPFITEKNYSIEPAPLSREDLFNWIEAELNEIKPNLPSPRSEYGVADQAVASALLARMYLNAEIYTGKARYTECINACNEVIKAGYQLADNYADLFKADNGENPDTKKEIIYPIIFDGDKTQSWGMAAIIIGARGAEDKDVLLAHSGVDQGWAGFRATSNLVHLFDFQNDEEPKASEIQDKRGIFYDKGRSIDITSSVSGTFETEGWSVFKFSNLNSNGQPGKNTLWVDTDFPMFRLGDIYLMYAEAVARGGEGSKASAVEYINALRKRAYGDDKHNISENWLEENNFRNLLDERGRELYWEGIRRTDLVRFDLLTSGSYTWDFKGGINTGVGVNKRYNVYPIPVTDLTVNGNLQQNEGY
With B1 as the binder, how does the “glycan array binding signal (z-score)” value [1] read?
Its value is -0.783.

And the “glycan array binding signal (z-score)” value [2]?
The value was -0.391.

And the “glycan array binding signal (z-score)” value [3]?
The value was -0.043.

And the “glycan array binding signal (z-score)” value [4]?
Its value is -0.32.

What about the “glycan array binding signal (z-score)” value [5] of the same binder?
The value was -0.356.

And the “glycan array binding signal (z-score)” value [6]?
The value was 0.534.

And the “glycan array binding signal (z-score)” value (Gal(a1-3)GalNAc)?
Its value is 0.046.

What about the “glycan array binding signal (z-score)” value [7] of the same binder?
Its value is 2.6.

And the “glycan array binding signal (z-score)” value [8]?
The value was -0.732.

What about the “glycan array binding signal (z-score)” value (Gal(a1-4)Gal(b1-4)Glc) of the same binder?
The value was -0.25.

And the “glycan array binding signal (z-score)” value (Gal(a1-4)Gal(b1-4)GlcNAc)?
The value was 0.822.

What about the “glycan array binding signal (z-score)” value [9] of the same binder?
The value was 2.35.

What about the “glycan array binding signal (z-score)” value [10] of the same binder?
Its value is -1.13.

What about the “glycan array binding signal (z-score)” value (Gal(a1-4)GlcNAc) of the same binder?
Its value is -0.431.

And the “glycan array binding signal (z-score)” value (Gal(a1-6)Glc)?
Its value is -0.209.

And the “glycan array binding signal (z-score)” value (Gal(b1-2)Gal)?
Its value is -0.992.

And the “glycan array binding signal (z-score)” value (Gal(b1-3)Gal)?
Its value is -0.645.

What about the “glycan array binding signal (z-score)” value (Gal(b1-3)Gal(b1-4)GlcNAc) of the same binder?
The value was -0.566.

And the “glycan array binding signal (z-score)” value (Gal(b1-3)GalNAc)?
The value was 0.204.

And the “glycan array binding signal (z-score)” value [11]?
Its value is -0.523.

What about the “glycan array binding signal (z-score)” value [12] of the same binder?
Its value is -0.06.

What about the “glycan array binding signal (z-score)” value (Gal(b1-3)GalNAc(b1-3)Gal) of the same binder?
The value was -0.509.

What about the “glycan array binding signal (z-score)” value [13] of the same binder?
The value was -0.296.

What about the “glycan array binding signal (z-score)” value [14] of the same binder?
Its value is -0.601.

What about the “glycan array binding signal (z-score)” value [15] of the same binder?
The value was 0.015.

What about the “glycan array binding signal (z-score)” value (Gal(b1-3)GlcNAc) of the same binder?
Its value is -0.238.

What about the “glycan array binding signal (z-score)” value [16] of the same binder?
Its value is -0.489.

And the “glycan array binding signal (z-score)” value [17]?
The value was 0.231.

What about the “glycan array binding signal (z-score)” value (Gal(b1-3)GlcNAc(b1-2)Man) of the same binder?
Its value is -0.003.

And the “glycan array binding signal (z-score)” value [18]?
Its value is 0.979.

And the “glycan array binding signal (z-score)” value [19]?
Its value is -0.623.

What about the “glycan array binding signal (z-score)” value [20] of the same binder?
Its value is 0.359.

What about the “glycan array binding signal (z-score)” value [21] of the same binder?
Its value is -0.229.

What about the “glycan array binding signal (z-score)” value [22] of the same binder?
The value was -0.549.

What about the “glycan array binding signal (z-score)” value [23] of the same binder?
The value was -1.03.

And the “glycan array binding signal (z-score)” value [24]?
Its value is 0.002.

And the “glycan array binding signal (z-score)” value [25]?
The value was -0.083.
